According to the supplement of paper PMC10338343:
± gives the standard deviation. Only a part is listed here, and it is no random draw. Many of these values have a large error.

System: MIWI (PIWIL1) piRISC loaded with L1MC piRNA (30 nt)
Test: pre-steady-state target cleavage rate (min^-1); MIWI and MILI are mouse PIWI proteins and EfPiwi is from a freshwater sponge; tags in brackets are library labels; higher = faster piRNA-guided slicing of the target
Settings: guide: L1MC piRNA 5'p-UAACUAAAUACUAUGCAAGCUGUAGGUCCU
Procedure, shortened: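 The method was Cleave-'n-Seq, in which uncleaved targets from a transcribed, DNA-blocked target RNA library were sequenced after exposure to active affinity-purified piRISC carrying one synthetic guide, with or without GTSF1 partner protein. Reactions contained 0.1 nM library, 1 nM piRISC and, where present, 500 nM GTSF1 in HEPES–potassium acetate buffer at 33 °C for 0–8 or 0–960 min. Reads were normalised to depth and to weakly complementary targets, three trials were pooled, and k3 was capped at 0.0001 min^-1. The pre-steady-state cleavage rate came from a burst-and-steady-state fit.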

[1] = auxiliary factor: none (no GTSF1)
[2] = auxiliary factor: 500 nM mouse GTSF1

Row | Sequence | pre-steady-state target cleavage rate [1] | pre-steady-state target cleavage rate [2]
1 | AGGACCUUGAGCUUGCAUAGUAUUUUCAAA | 0.00212 ± 0.0024 | –
2 | UGGACCUACAGCUUUGCAUAGUAUUUAGUUA | – | 1.43 ± 0.11
3 | AGGACCUACAGCUUGCAUAGAUAUUAGAAA | 0.000826 ± 0.012 | –
4 | UCGACCUACAGCUACCAUAGUAUUUAGAAA | 0.000254 ± 0.015 | –
5 | UCCUGGAUGUCGAACCAUAGAUUUUAGUUA | 0.000276 ± 0.021 | –
6 | UCGACCUACAGCUUGCAUACAUUUUACAAA | 0.000405 ± 0.013 | –
7 | UGGACCCUACAGCUUGCAUAGUAUUUAGUUA | – | 1.42 ± 0.074
8 | UCCACCAUGAGCUUGCAUAGUAUUUUCAAA | 0.00191 ± 0.0025 | –
9 | UCCACCUACAGCUUGCAUAGUAUAAAGUAA | 0.00259 ± 0.0033 | –
10 | AGGACCUACACGUUGCAUAGUAUUUUCAAA | 0.00184 ± 0.0033 | –
11 | UCCACCUACAGCUUGCAUUCUAUUUACAAA | 0.000584 ± 0.0092 | –
12 | UCCUGGAUGUCGAACGAUUGUAUUUAGUAA | 0.000134 ± 0.026 | –
13 | UCGACCUACAGCUUGCAUAGUAUAUACAAA | 0.00103 ± 0.0056 | –
14 | UCCACCUACAGCUUGCAUAGUUAUUAGAAA | 0.000939 ± 0.009 | –
15 | UCCUGGAUGUGGUUGCAUAGUUUUUAGUUA | – | 0.00475 ± 0.0052
16 | UCGACCUACAGCUUGCAUAGAUAUUAGUAA | 0.00072 ± 0.0075 | –
17 | AGGACCUACAGCUUCGUUAGUAUUUAGUAA | 0.000414 ± 0.0088 | –
18 | UCGACCUACAGGAAGCAUAGUAUUUUCAAA | 0.000631 ± 0.0087 | –
19 | UGGACCUACAGCUUGGUUAGUAUUUUCAAA | 0.00093 ± 0.0055 | –
20 | UCGACCUACAGCUAGCAUAGUAUUUAGAAA | 0.00208 ± 0.0028 | –
21 | UCCACCUACAGCAUGCAUAGUAUUUAGAAA | 0.00164 ± 0.0044 | –
22 | UCGACCUACAGCUUGCAUAGAUAUUUCAAA | 0.000629 ± 0.0096 | –

Row | Sequence | pre-steady-state target cleavage rate [1] | pre-steady-state target cleavage rate [2]
23 | UGGACCUACAGCUUGCAUAGUAUAAUGAAA | 0.00204 ± 0.0034 | –
24 | UGGACCUACAGCUUGCAUAGUAAAAUCAAA | 0.000337 ± 0.0072 | –
25 | UCCUGGAUGUCGAACGUUAGUAUUUAAUUA | 0.000198 ± 0.025 | –
26 | UCGACCUACAGCUUGCAUACAUUUUAGUAA | 0.000818 ± 0.0078 | –
27 | UGGACCUACAGCUUGCUAUGUAUUUAGAAA | 0.00101 ± 0.0045 | –
28 | UCCACCUACAGCUUGCAUAGUAUAAUCAAA | 0.00075 ± 0.009 | –
29 | AGGACCUACAGCUUGCAUUCAUAAAUCAAA [g13:g30:cont:t1A] | 0.000719 ± 0.01 | –
30 | AGGACCUACAGCUUCCAUACUAUUUAGUUA | 0.00112 ± 0.005 | –
31 | UCCACCUACACGAUGCAUAGUAUUUAGAAA | 0.00106 ± 0.0074 | –
32 | UCGACCUACAGCUUCCAUAGAAUUUAGUUA | 0.00142 ± 0.0029 | –
33 | UCCACCUACAGCUUCGUUAGUAUUUACAAA | 0.00069 ± 0.01 | –
34 | UCCACCUACAGCUUGCAUAGUUAAUAGAAA | 0.000329 ± 0.0081 | –
35 | UCCUGGAUGUCGAACCAUAGUUUUAAGUUA | – | 0.000481 ± 0.015
36 | UCCACCUACAGGAAGCAUAGUAUUUUCAAA | 0.000599 ± 0.01 | –
37 | UCCUGGAUGUCGAAGCAUAGUAUUUAGUUUA | 0.00143 ± 0.0063 | –
38 | UGGACCUACAGGAAGCAUAGUAUUUAGAAA | 0.00129 ± 0.0054 | –
39 | UCCACCUACAGCAUCCAUAGUAUUUAGUUA | 0.00106 ± 0.0038 | –
40 | UCCACCUACAGGUUCCAUAGUAUUUAGUUA | 0.00109 ± 0.0049 | –
41 | AGGACCUACAGCAAGCAUAGUAUUUUCAAA | 0.001 ± 0.0065 | –
42 | UGGACCUACAGCUUGCAUUCAAUUUAGUUA | 0.00107 ± 0.004 | –
43 | AGGACCUACAGCUUGCAUAGUUAUUAGAAA | 0.00156 ± 0.0064 | –
44 | UCCACCUACAGCUAGCAUAGUAUUUUCAAA | 0.000804 ± 0.0078 | –

Row | Sequence | pre-steady-state target cleavage rate [1] | pre-steady-state target cleavage rate [2]
45 | UGGACCUACAGCUUGCAUGAGUAUUUAGUUA | 0.000824 ± 0.0085 | –
46 | AGGACCUACAGCUUGCAUAGUAUAAACAAA | 0.00176 ± 0.0045 | –
47 | UCGACCUACAGCUUGCAUAGUAUUAUCUAA | 0.00227 ± 0.0038 | –
48 | UGGACCUACAGCUUGCAUAGUAUAAUCAAA | 0.000974 ± 0.0055 | –
49 | UGGACCUACAGCAAGCAUAGUAUUUAGAAA | 0.000684 ± 0.0052 | –
50 | UGUGACCUACAGCUUGCAUAGUAUUUAGUUA | – | 1.45 ± 0.063
51 | UCCUGGAUGUCGAACGUAAGUAUUUACAAA | 0.000225 ± 0.016 | –
52 | UCCACCUACAGCUUGCAUUCUAUUUAGUAA | 0.00247 ± 0.0026 | –
53 | AGGACCUACAGCUUGCAUAGUAAUUACAAA | 0.00148 ± 0.006 | –
54 | UCGACCUACAGCUUGCAUAAGUAUUUAGUUA | 0.00104 ± 0.0069 | –
55 | UCGACCUACAGCUUGCAUACAAUUUAGAAA | 0.00132 ± 0.0053 | –
56 | UCCACCUACAGCUUGCAUACAAUUUUCAAA | 0.000878 ± 0.0081 | –
57 | UCCACCUACAGCUUGCAUAGUAUUAACAAA | 0.00169 ± 0.004 | –
58 | UCCACCUUGAGCUUGCAUAGUAUUUUCAAA | 0.00131 ± 0.0033 | –
59 | UCCUGGAUGUCCUUGCAAAGUAUUAAGUUA | 0.00159 ± 0.004 | –
60 | UCGACCUACAGCUUGGUAAGUAUUUACAAA | 0.000274 ± 0.0081 | –
61 | AGGACCUACAGCUACCAUAGUAUUUAGAAA | 0.000372 ± 0.0093 | –
62 | UGGACCUACAGCUUCCAUAGAAUUUAGUUA | 0.000549 ± 0.0037 | –
63 | UCCACCUACAGCUUGCAUAGUUAAUACAAA | 0.000763 ± 0.0093 | –
64 | AGGACCUACAGCUUGCAUAGCUAUUUAGUUA | 0.00209 ± 0.0054 | –
65 | UCCACCUACAGCUUCCAUAGUAUUUAGAUA | 0.000768 ± 0.0075 | –
66 | UCCACCUAGUCCUUGCAUAGUAUUUUCAAA | 0.00117 ± 0.0032 | –

Rewritten comma-delimited: part of the list above.
Row,Sequence,pre-steady-state target cleavage rate [1],pre-steady-state target cleavage rate [2]
59,UCCUGGAUGUCCUUGCAAAGUAUUAAGUUA,0.00159 ± 0.004,–
60,UCGACCUACAGCUUGGUAAGUAUUUACAAA,0.000274 ± 0.0081,–
